Among the data in PubChem BioAssay AID292 (DTP/NCI, 2004) are survivor count and T/C values, retold here.

This experiment relates to B6C3F1 mice, ip Sarcoma M5076, median survival T/C. Put plainly: NCI In Vivo Anticancer Drug Screen. Data for tumor model Sarcoma M5076 (intraperitoneal) in B6C3F1 mice. Conditions: T/C endpoint: median survival time, higher T/C = longer survival. The gist of the method: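 The readout is a ratio of survival in drug-treated animals to survival in animals given vehicle alone, taken in mice bearing a transplanted tumour line.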

Where [1] appears, read: dose: 300.0 mg/kg/injection, schedule: Q04DX004 (ip), vehicle: Klucel (hydroxypropylcellulose) (HPC).
The mark [2] stands for this setting: dose: 200.0 mg/kg/injection, schedule: Q04DX004 (ip), vehicle: saline with Tween-80.
[3] abbreviates: dose: 400.0 mg/kg/injection, schedule: Q04DX004 (ip), vehicle: saline with Tween-80.
Where [4] appears, read: dose: 800.0 mg/kg/injection, schedule: Q04DX004 (ip), vehicle: saline with Tween-80.
Where [5] appears, read: dose: 200.0 mg/kg/injection, schedule: Q04DX004 (ip), vehicle: water.
The mark [6] stands for this setting: dose: 200.0 mg/kg/injection, schedule: Q04DX004 (ip), vehicle: Klucel (hydroxypropylcellulose) (HPC).
Setting [7] is: dose: 600.0 mg/kg/injection, schedule: Q04DX004 (ip), vehicle: saline with Tween-80.
Where [8] appears, read: dose: 25.0 mg/kg/injection, schedule: Q04DX004 (ip), vehicle: saline with Tween-80.

The list does not hold the whole screen: it is rich in T/C values a quarter to a half above the control, in often repeated tests (any T/C) and in doses without a T/C. Further doses and runs are listed elsewhere. T/C is the treated group as % of the vehicle group. Some doses have a count of surviving animals in place of a T/C: the source files T/C as zero there, which appears to mark a toxic dose or a test without result, not a measured value. Some doses without a T/C left all or most animals alive at the check, yet need not have been tolerated: survival well below the control is almost never listed, so the zero probably covers shortened survival too. Survivors were counted at the toxicity check, usually on the fifth day, unless a day is given; later deaths do not show. Schedules are NCI's codes, read here as Q, the interval in days (D) or hours (H), X, the number of doses. Marks such as (2×) stand for listed records that agree. Some entries were tested several times; the results are listed from low to high. For survival time, this PubChem deposit counts one and a half times the control or more as active, and values a quarter to a half above the control carry no call in these data; other NCI protocols may use other cut-offs. Some T/C values carry the count of animals alive at the toxicity check (mostly the fifth day); where none is given, no animal had died by that day.

For `[Cl][Hg][Cl]`, the survivor count by setting is: (dose: 0.19 mg/kg/injection, schedule: Q04DX004 (ip), vehicle: saline) 8 of 10 on day 14; (dose: 6.0 mg/kg/injection, schedule: Q04DX004 (ip), vehicle: saline) 4 of 10 on day 14; (dose: 6.25 mg/kg/injection, schedule: Q04DX004 (ip), vehicle: saline) 1 of 10 on day 14; (dose: 12.5 mg/kg/injection, schedule: Q04DX004 (ip), vehicle: saline) 0 of 10 on day 14.
Take `O=C(Nc1ccc([N+](=O)[O-])cc1)C1C(=O)C(=O)N(c2ccc([N+](=O)[O-])cc2)C1=O` (configuration not stated): the survivor count reads like this: (dose: 400.0 mg/kg/injection, schedule: Q04DX004 (ip), vehicle: Klucel + Tween-80) 2 of 10 on day 14; (dose: 800.0 mg/kg/injection, schedule: Q04DX004 (ip), vehicle: Klucel + Tween-80) 0 of 10 on day 14.
For the compound `N#Cc1c(-c2ccc(F)cc2)c(-c2ccc(F)cc2)nn(CCO)c1=O`, the T/C was 125 % of control (dose: 200.0 mg/kg/injection, schedule: Q04DX004 (ip), vehicle: distilled water + Tween-80, evaluated on day 48) and 147 % of control (dose: 200.0 mg/kg/injection, schedule: Q04DX004 (ip), vehicle: distilled water + Tween-80, evaluated on day 60).
As to `COc1cc(NS(C)(=O)=O)ccc1Nc1c2ccccc2nc2ccccc12`, the survivor count reads like this: (dose: 2.0 mg/kg/injection, schedule: Q04DX005 (ip), vehicle: other) 0 of 8 on day 17; (dose: 4.0 mg/kg/injection, schedule: Q04DX005 (ip), vehicle: other) 0 of 8 on day 17; (dose: 8.0 mg/kg/injection, schedule: Q04DX005 (ip), vehicle: other) 0 of 8 on day 17; (dose: 16.0 mg/kg/injection, schedule: Q04DX005 (ip), vehicle: other) 0 of 8 on day 17; (dose: 32.0 mg/kg/injection, schedule: Q04DX005 (ip), vehicle: other) 0 of 8 on day 17.
`CC1(C)CC(OS(C)(=O)=O)CC(C)(C)N1O`: the survivor count under setting [1] is 0 of 10 on day 14.
For the compound `CC(=O)C[n+]1ccccc1Sc1ccc(Cl)cc1`, the survivor count under setting [2] is reported as 0 of 10 on day 14 and the survivor count under setting [3] is reported as 0 of 10 on day 14.
As for `O=c1cc(-c2ccccc2)[nH]c2c1CCCC2`, the survivor count (dose: 1200.0 mg/kg/injection, schedule: Q04DX004 (ip), vehicle: saline with Tween-80) is listed as 4 of 10 on day 14.
As to `CC1=Nc2cc(N)nn2C(=O)C1`, the survivor count under setting [2] is reported as 7 of 10 on day 14, the survivor count under setting [3] is on record as 8 of 10 on day 14 and the survivor count under setting [4] is listed as 8 of 10 on day 14.
With `COc1ccc(-n2c(SCC(=O)NC(=O)Nc3ccccc3)nc3c(Br)cc(Br)cc3c2=O)cc1`, under setting [1], the survivor count is reported as 8 of 10 on day 14.
Turning to `NC(=S)N/N=C/c1cc(=O)c2cc(Cl)ccc2o1`, the survivor count is 10 of 10 on day 14 (dose: 150.0 mg/kg/injection, schedule: Q04DX004 (ip), vehicle: DMSO); 10 of 10 on day 14 (dose: 300.0 mg/kg/injection, schedule: Q04DX004 (ip), vehicle: DMSO); 9 of 10 on day 14 (dose: 600.0 mg/kg/injection, schedule: Q04DX004 (ip), vehicle: DMSO); 9 of 10 on day 14 (dose: 1200.0 mg/kg/injection, schedule: Q04DX004 (ip), vehicle: DMSO).
Turning to `O=NN(CCCl)C(=O)NCCCl`, the T/C (dose: 3.0 mg/kg/injection, schedule: Q04DX004 (ip), vehicle: saline + alcohol, evaluated on day 60) is 134 % of control and the T/C (dose: 3.0 mg/kg/injection, schedule: Q04DX004 (ip), vehicle: saline + alcohol, evaluated on day 75) was 131 % of control. Also, for the setting “dose: 48.0 mg/kg/injection, schedule: Q04DX004 (ip), vehicle: saline + alcohol”, the survivor count is 5 of 10 on day 14.
In the case of `N[C@@H](Cc1c[nH]c2ccccc12)C(=O)Nc1nncs1`, for the setting “dose: 1600.0 mg/kg/injection, schedule: Q04DX004 (ip), vehicle: suspension in saline”, the survivor count is listed as 0 of 10 on day 14.
Take `O=NNc1ccc2cccnc2n1`: the T/C (dose: 25.0 mg/kg/injection, schedule: Q04DX004 (ip), vehicle: water) was 135 % of control and the T/C (dose: 50.0 mg/kg/injection, schedule: Q04DX004 (ip), vehicle: water) is 132 % of control. Moreover, the survivor count is given as 3 of 10 on day 14 under setting [5] and 0 of 10 on day 14 (dose: 400.0 mg/kg/injection, schedule: Q04DX004 (ip), vehicle: water).
On to `CN(C)N=Nc1ccccc1`, for which the T/C is, setting by setting: (dose: 12.5 mg/kg/injection, schedule: Q04DX004 (ip), vehicle: Klucel (hydroxypropylcellulose) (HPC)) 141 % of control; (dose: 25.0 mg/kg/injection, schedule: Q04DX004 (ip), vehicle: Klucel (hydroxypropylcellulose) (HPC)) 131 % of control; (dose: 50.0 mg/kg/injection, schedule: Q04DX004 (ip), vehicle: Klucel (hydroxypropylcellulose) (HPC)) 147 % of control. The survivor count is, setting by setting: (dose: 100.0 mg/kg/injection, schedule: Q04DX004 (ip), vehicle: Klucel (hydroxypropylcellulose) (HPC)) 4 of 10 on day 14; under setting [6], 0 of 10 on day 14 (2×).
As to `O=S(=O)(O)C1=CC(=N\Cl)/C=CC/1=N/Cl`, the survivor count under setting [7] was 0 of 10 on day 14.
With `CC(CNC(=O)C12CC3CC(CC(C3)C1)C2)NC(=O)C12CC3CC(CC(C3)C1)C2` (configuration not stated), the survivor count (dose: 400.0 mg/kg/injection, schedule: Q04DX004 (ip), vehicle: other) is 9 of 10 on day 14.
Take `c1ccc(OCC2CO2)c(OCC2CO2)c1` (configuration not stated): the T/C under setting [8] is 127 % of control. Besides, the survivor count under setting [3] was 0 of 10 on day 14 and 3 of 10 on day 14; the survivor count under setting [4] is on record as 0 of 10 on day 14.
For `N=C(N)c1ccc(Nc2ccc(-c3cc4ccc(C(=N)N)cc4[nH]3)cc2)cc1`, the T/C (dose: 7.5 mg/kg/injection, schedule: Q04DX004 (ip), vehicle: Klucel (hydroxypropylcellulose) (HPC)) was 125 % of control. For the same compound, the survivor count (dose: 15.0 mg/kg/injection, schedule: Q04DX004 (ip), vehicle: Klucel (hydroxypropylcellulose) (HPC)) is 8 of 10 on day 14; the survivor count (dose: 30.0 mg/kg/injection, schedule: Q04DX004 (ip), vehicle: Klucel (hydroxypropylcellulose) (HPC)) is on record as 1 of 10 on day 14; the survivor count (dose: 60.0 mg/kg/injection, schedule: Q04DX004 (ip), vehicle: Klucel (hydroxypropylcellulose) (HPC)) is 0 of 10 on day 14.
With `CC1CC(Nc2ccc(NC3=CC(=O)OC(C)C3)cc2)=CC(=O)O1` (configuration not stated), the survivor count under setting [7] was 10 of 10 on day 14.
On to `CN(C)N=Nc1ccc(C(N)=O)cc1`, for which the T/C is 132 % of control under setting [8]; 125, 140, 146 % of control (dose: 50.0 mg/kg/injection, schedule: Q04DX004 (ip), vehicle: saline with Tween-80); 139 and 149 % of control (dose: 100.0 mg/kg/injection, schedule: Q04DX004 (ip), vehicle: saline with Tween-80); 140 and 149 % of control [8 of 10 alive on day 14] under setting [2]. Besides, the survivor count under setting [3] was 0 of 10 on day 14 and 7 of 10 on day 14.
For `CN1c2ccccc2C(=O)N2C(=O)CCC21C` (configuration not stated), the survivor count (dose: 300.0 mg/kg/injection, schedule: Q04DX004 (ip), vehicle: saline with Tween-80) is on record as 5 of 10 on day 14.
For the compound `C=C1c2cccc(O)c2C(O)=C2C(=O)[C@]3(O)C(O)=C(C(N)=O)C(=O)[C@@H](N(C)C)[C@@H]3[C@@H](O)[C@H]12`, under setting [6], the survivor count is reported as 1 of 10 on day 14.
`CC1(O)C=CC(=O)C=C1`: the survivor count reads like this: (dose: 100.0 mg/kg/injection, schedule: Q04DX004 (ip), vehicle: water) 0 of 10 on day 14 and 1 of 10 on day 14; under setting [5], 0 of 10 on day 14.
